In article PMC5450317:
No constants are given. Whether binding was seen depends on the method and setting. For some of these results: Binding seen in cells or lysates may run through a third protein. Some entries that bind do so weakly or less than the wild type. For some of these results: Tags and fused reporters may be left off the sequences shown.

B1: Dgt6 (protein, UniProt Q9VAP2 1-654)
chain: MDRTIIAPWKAEEKEQSEKLHRKLQGLALVHPLPDELRKLIAWDMFLKPNQVAFVHVMHYLFRLLDPAEFKRRFFWPITDKKSEANFRSSTVEYLKHLNEKHQLHWANIKSYLVVMPGGMRFINFLLEFVGFVIQELIKQREKSLGLEAGTPNVSAKVMARQNAVMKEYASSYVVNLEENTALLRDKTQKIRRLMADLSADMGVPEEQLADDGFLDEFEATAALGVERVITQPTERKFDLEASLCGLKEAIDLFQVKQAENNQSKEAVEKALRGMRVLFDCDAVTEGDFYDPLGASKMDALLNGFNRISGTIAEQLDANDHYNESNAFVTTDLQALRVELSQSEVQLNNLLKKLNEPSKKDKGSANASGSARVQTLQPATPRFESVISSKFVSTPPIRIDMGGGGGRNAPVRLALQDDFNGKQFDALSNSLLAPAPPRSARKLKALDQSTGIDLNGTLNRSKINDPMQMLRTIHKNTSKVKAAPQANLSSLGSKWKQMQASFGFDEAPVPGAAVISPQTSPTDPSDPFTPLSGSECTRIERIPRTSENNTSLIAKSAAVIKVLEVSRNVLNLSTSPSGRLDALVPHTESHQQDVAPRLQLNDRTINDSLQLDPDFNIENDKNAFNVSHKFDFDQIGGEDDLQNISDSVLKDIIF
B2: His-Dgt5^N (domain or fragment, UniProt Q7K4B4 1-450)
chain: MAYQEKITEFKNWATNLGCPPTALPTDDALRRIFKSGSSLLLNQLQSRIQPVDYVREVRENLLIAQVARYKDKMVPLASRSFQPPELQRYQKIQELKKHKEKANQQLTEARKEYQKLSAGIKTKNIQTISAENRKQLLESKCNILDLKLESLNKNYDQELKNKIQILGTTPVKLSARNASEAQATRAVEQALKQLETFYGMCDDGNAVNNLAEAKQRLWDQMRSTFADIPNSLLLNVVMKIKEEQLQHIMKLNESRGECTNDKPPLNNYEVKLLKTKADMLGLAAKYFAAQKELELKEERFCQDYSVFVDKLQSKVYRFNGISLGDEENADELISDYLVQYNMRNFNRSQNEFLREQIEQLRLELDAGAKQLENHDLKLGSVKQVYGDINSSINRIQQDMVQLSQIKEKILFSRNMMKNLLDDMQAATQKQNAKSQLMSTKLKVSNMSML
B3: His-Dgt6^C (domain or fragment, UniProt Q9VAP2 298-654)
chain: MDALLNGFNRISGTIAEQLDANDHYNESNAFVTTDLQALRVELSQSEVQLNNLLKKLNEPSKKDKGSANASGSARVQTLQPATPRFESVISSKFVSTPPIRIDMGGGGGRNAPVRLALQDDFNGKQFDALSNSLLAPAPPRSARKLKALDQSTGIDLNGTLNRSKINDPMQMLRTIHKNTSKVKAAPQANLSSLGSKWKQMQASFGFDEAPVPGAAVISPQTSPTDPSDPFTPLSGSECTRIERIPRTSENNTSLIAKSAAVIKVLEVSRNVLNLSTSPSGRLDALVPHTESHQQDVAPRLQLNDRTINDSLQLDPDFNIENDKNAFNVSHKFDFDQIGGEDDLQNISDSVLKDIIF
B4: His-Dgt3^N (domain or fragment, UniProt Q9W2P0 1-350)
chain: MGDLLSNSEFFKKLGVDSSNQWILYDEQMEMFFKFLSGNITDANILTERQVLEREEMQRRGEWLSASDRELKLLQIEAESPGLLNYKQQDVDALTMSIEAIEDASRDYATLLEDMMTTKHSITKHLGEVECVTAELQLREKDLIAECQSKAKQLEELQQENCRLSAEAKKAFTAPQLPPLFMHQLPLEQYFHKCDSFMQYFTLYVKENFKIQDYDEFQSAEEDLGREKAKLEDLERGIQFYALSYIRTKAKVKATQCLIDQLDLGKIHCLSLTDMAREMHDLQLLNDYQLSNTHDTLLNDLTIHIQQHTQRRIELVLYENTKLKLERAVRRHESDKKLTKIISDALSNAE
B5: Dgt3 (protein, UniProt Q9W2P0 1-565)
chain: MGDLLSNSEFFKKLGVDSSNQWILYDEQMEMFFKFLSGNITDANILTERQVLEREEMQRRGEWLSASDRELKLLQIEAESPGLLNYKQQDVDALTMSIEAIEDASRDYATLLEDMMTTKHSITKHLGEVECVTAELQLREKDLIAECQSKAKQLEELQQENCRLSAEAKKAFTAPQLPPLFMHQLPLEQYFHKCDSFMQYFTLYVKENFKIQDYDEFQSAEEDLGREKAKLEDLERGIQFYALSYIRTKAKVKATQCLIDQLDLGKIHCLSLTDMAREMHDLQLLNDYQLSNTHDTLLNDLTIHIQQHTQRRIELVLYENTKLKLERAVRRHESDKKLTKIISDALSNAELLWIAIQLDCDKKRNCLDTSEELRDQAQATWQRIQTMRSINASYQGICAQFVQEIANLLSAHLGQNIKATEAKACLFEYEKFGRLLSYSFQSMLNRKSCAAVQDQLAELKRLEQTLRPFVYDSPLEQPMFENVRYLSAIYNVTQQQTRLDESGRSLRKDFLENVVGRIERDKLYRYSVVLWIWFLTEPQRMMHAIDEVKKAAAAVIRPGGGLHRK

Assays:
[1] = biological target: T1, Dgt3 (Drosophila (endogenous in embryos)) (UniProt Q9W2P0); test: cross-linking; Augmin purified through Msd1-GFP on GFP-TRAP-A beads, cross-linked with BS3 (1:5 protein to cross-linker, g/g) on ice for 2 h in C buffer; trypsin, SCX fractions, LC-MS/MS; linkage FDR 5%
T1 sequence: B5 chain

[2] = biological target: T2, Dgt5 (Drosophila (endogenous in embryos)) (UniProt Q7K4B4); test: as above
T2 sequence: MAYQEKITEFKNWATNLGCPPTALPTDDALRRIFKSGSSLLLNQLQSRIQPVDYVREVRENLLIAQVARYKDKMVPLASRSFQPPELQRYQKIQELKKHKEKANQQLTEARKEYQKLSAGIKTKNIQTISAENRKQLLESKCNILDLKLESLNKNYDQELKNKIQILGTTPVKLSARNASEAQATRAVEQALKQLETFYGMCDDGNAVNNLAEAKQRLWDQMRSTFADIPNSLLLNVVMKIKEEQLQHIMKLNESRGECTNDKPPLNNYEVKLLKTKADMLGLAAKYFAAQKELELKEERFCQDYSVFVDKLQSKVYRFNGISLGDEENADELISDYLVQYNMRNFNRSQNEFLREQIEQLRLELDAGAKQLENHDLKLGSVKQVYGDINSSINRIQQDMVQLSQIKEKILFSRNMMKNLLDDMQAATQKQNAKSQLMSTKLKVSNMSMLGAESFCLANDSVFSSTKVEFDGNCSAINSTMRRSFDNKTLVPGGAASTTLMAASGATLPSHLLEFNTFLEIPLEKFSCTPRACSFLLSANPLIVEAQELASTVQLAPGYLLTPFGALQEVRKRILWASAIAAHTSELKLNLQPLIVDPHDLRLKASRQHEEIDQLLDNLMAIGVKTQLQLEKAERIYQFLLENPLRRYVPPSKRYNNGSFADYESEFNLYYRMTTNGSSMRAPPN

GST-Dgp71WD (Drosophila) [3] = biological target: T3, GST-Dgp71WD (Drosophila) (UniProt Q9VJ57); test: pull-down; GST-Dgp71WD on Glutathione Agarose resin (10 µl) incubated with about 20 µg of a single His-tagged protein for 2 h at 4°C; washes in PBS with 150 mM imidazole and 0.1% IGEPAL CA-630; anti-His western blot; both purified
T3 sequence: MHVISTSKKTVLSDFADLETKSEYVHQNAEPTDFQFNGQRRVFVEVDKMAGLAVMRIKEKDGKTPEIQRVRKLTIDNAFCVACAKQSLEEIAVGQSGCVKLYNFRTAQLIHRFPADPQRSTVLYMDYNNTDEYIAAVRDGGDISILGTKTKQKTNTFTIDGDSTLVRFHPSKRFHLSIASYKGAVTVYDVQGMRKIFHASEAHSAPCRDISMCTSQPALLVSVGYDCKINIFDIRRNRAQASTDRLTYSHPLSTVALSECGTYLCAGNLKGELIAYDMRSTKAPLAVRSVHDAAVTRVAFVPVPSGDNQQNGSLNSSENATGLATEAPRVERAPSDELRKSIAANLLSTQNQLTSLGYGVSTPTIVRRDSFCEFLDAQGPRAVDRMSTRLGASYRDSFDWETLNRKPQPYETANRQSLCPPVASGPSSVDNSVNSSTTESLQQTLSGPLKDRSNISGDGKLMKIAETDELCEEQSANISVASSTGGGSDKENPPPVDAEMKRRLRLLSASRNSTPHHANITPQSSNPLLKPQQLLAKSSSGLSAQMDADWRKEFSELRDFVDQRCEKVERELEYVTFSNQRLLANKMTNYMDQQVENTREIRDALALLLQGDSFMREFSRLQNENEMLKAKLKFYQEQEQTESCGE

GST-Dgp71WD (Drosophila) [4] = biological target: T3, GST-Dgp71WD (Drosophila); test: pull-down; as a3, but His-Dgt3^N incubated with GST-Dgp71WD resin in combination with His-Dgt5^N; both purified

| Binder | binding [1] | binding [2] | binding (GST-Dgp71WD (Drosophila) [3]) | binding (GST-Dgp71WD (Drosophila) [4]) |
| --- | --- | --- | --- | --- |
| B1 | binds | binds | – | – |
| B2 | – | – | binds | – |
| B3 | – | – | binds | – |
| B4 | – | – | binds weakly | binds |
| B5 | – | binds | – | – |
